From publication PMC4761979 come the findings set out here.

Experiment [1] concerns the target T1, isoD7-Aβ_(1–10) (human).
T1 chain: DAEFRHDSGY
Briefly: dynamic light scattering; peptide with two-fold molar excess of ZnCl2, measured within 10 minutes; peptide concentrations of Table 1: Aβ1-16 5.0 mM, H6R-Aβ1-16 1.0 mM, isoD7-Aβ1-16 0.8 mM, Aβ6-16 2.0 mM, isoD7-H13R-Aβ1-16 1.0 mM, isoD7-Aβ1-10 1.0 mM; both purified. The settings on record: remark: other sources report otherwise.

Experiment [2] deals with T1, isoD7-Aβ_(1–10) (human). Nature of the experiment: condition: total concentration of peptide and ZnCl2 from 1.0 to 1.7 mM; NMR titration; method of continuous variations: peptide and ZnCl2 in varying proportions at a fixed total concentration (from 1.0 to 1.7 mM); titration of 1.0-1.5 mM peptide with ZnCl2 at pH 6.8-7.0; both purified. The settings on record: remark: other sources report otherwise.

No constants are given. Whether binding was seen depends on the method and setting.

B1: isoD7-Aβ_(1–10) (peptide)
chain: DAEFRHDSGY
modifications: here or on the partner: isoaspartate at 7; N-terminal acetyl; C-terminal amide; isoaspartate at 7; N-terminal acetyl; C-terminal amide
With B1, the figures for the binding result in experiment [1] and in experiment [2] were “no binding (tested: 1.0 mM peptide)” and “no binding”, respectively.
